The list does not hold the whole screen: it gathers tests that were run many times, whatever their T/C, doses with no T/C, and many T/C values between a quarter and a half above the control. Other doses and runs of a compound stand elsewhere. T/C is the treated group as % of the vehicle group. Some entries give survivors of the animals treated and no T/C: the source holds a T/C of zero for them, seemingly a mark for toxic or unscored doses. Some doses without a T/C left all or most animals alive at the check, yet need not have been tolerated: survival well below the control is almost never listed, so the zero probably covers shortened survival too. Counts of survivors are from the toxicity check (mostly the fifth day) where no day follows; animals may have died later. Schedules are NCI's codes, read here as Q, the interval in days (D) or hours (H), X, the number of doses. Some entries hold several experiments; the results are listed from low to high. For survival time, the PubChem record calls one and a half times the control and up active, and a quarter to a half above the control has no call in these data; cut-offs in other NCI protocols can differ. Some T/C values carry the count of animals alive at the toxicity check (mostly the fifth day); where none is given, no animal had died by that day.

The results in this text go back to PubChem BioAssay AID330 (DTP/NCI, 2004).

In this assay the test system is P388 leukemia ip, CD2F1 mice, survival T/C. Put plainly: NCI In Vivo Anticancer Drug Screen. Data for tumor model P388 Leukemia (intraperitoneal) in CD2F1 (CDF1) mice. Conditions: T/C endpoint: median survival time, higher T/C = longer survival.
[1] abbreviates: dose: 200.0 mg/kg/injection, schedule: Q01DX005 (ip), vehicle: Klucel (hydroxypropylcellulose) (HPC).
Where [2] appears, read: dose: 100.0 mg/kg/injection, schedule: Q01DX009 (ip), vehicle: saline with Tween-80.
Setting [3] is: dose: 200.0 mg/kg/injection, schedule: Q01DX009 (ip), vehicle: saline with Tween-80.
Where [4] appears, read: dose: 100.0 mg/kg/injection, schedule: Q01DX005 (ip), vehicle: Klucel (hydroxypropylcellulose) (HPC).
Setting [5] is: dose: 50.0 mg/kg/injection, schedule: Q01DX005 (ip), vehicle: Klucel (hydroxypropylcellulose) (HPC).

For the molecule `Cn1c(=O)oc2cc(NC(N)=O)c(Br)cc21`, the survivor count under setting [1] was 6 of 6.
As for `CC(=O)NC(=S)Nc1cccs1`, the survivor count is reported as 5 of 6 (dose: 50.0 mg/kg/injection, schedule: Q01DX009 (ip), vehicle: saline with Tween-80); 5 of 6 under setting [2]; 0 of 6 under setting [3].
As for `O=S(=O)(CBr)OCCCl`, the T/C (dose: 100.0 mg/kg/injection, schedule: Q01DX005 (ip), vehicle: saline with Tween-80) was 128 % of control.
As for `COc1cc2c(cc1OC)C(=O)Cc1ccc3c(c1CN(C)CC2)OCO3`, the survivor count is, setting by setting: under setting [2], 6 of 6; under setting [3], 6 of 6; (dose: 400.0 mg/kg/injection, schedule: Q01DX009 (ip), vehicle: saline with Tween-80) 2 of 6.
Take `O=C(Nc1ccc(C2=NCCCN2)cc1)c1ccc(NC(=O)c2ccc(C3=NCCCN3)cc2)cc1`: the T/C (dose: 3.13 mg/kg/injection, schedule: Q04DX003 (ip), vehicle: saline) is 130 % of control; the T/C (dose: 5.0 mg/kg/injection, schedule: Q04DX003 (ip), vehicle: saline with Tween-80) was 130 % of control; the T/C (dose: 6.25 mg/kg/injection, schedule: Q04DX003 (ip), vehicle: saline) is 140 % of control; the T/C (dose: 10.0 mg/kg/injection, schedule: Q04DX003 (ip), vehicle: saline with Tween-80) is 130 % of control. For the same molecule, the survivor count reads like this: (dose: 20.0 mg/kg/injection, schedule: Q01DX009 (ip), vehicle: saline) 4 of 6; (dose: 25.0 mg/kg/injection, schedule: Q04DX003 (ip), vehicle: saline) 3 of 6; (dose: 50.0 mg/kg/injection, schedule: Q04DX003 (ip), vehicle: saline) 0 of 6; (dose: 100.0 mg/kg/injection, schedule: Q04DX003 (ip), vehicle: saline) 0 of 6; (dose: 200.0 mg/kg/injection, schedule: Q04DX003 (ip), vehicle: saline) 0 of 6; (dose: 400.0 mg/kg/injection, schedule: Q04DX003 (ip), vehicle: saline) 0 of 6.
On to `O=c1oc2nc(-c3ccccc3)[nH]c(=O)c2c(O)c1-c1ccccc1`, for which the survivor count (dose: 240.0 mg/kg/injection, schedule: Q01DX005 (ip), vehicle: Klucel (hydroxypropylcellulose) (HPC)) is given as 3 of 6.
With `O=CC(NC(=O)N(CCCl)N=O)C(O)C(O)C(O)CO` (stereo unspecified), the T/C (dose: 1.5 mg/kg/injection, schedule: Q01DX005 (ip), vehicle: water) is 132 % of control; the T/C (dose: 2.59 mg/kg/injection, schedule: Q04DX002 (ip), vehicle: saline) is 145 % of control; the T/C (dose: 3.0 mg/kg/injection, schedule: Q01DX005 (iv), vehicle: saline) is 137 % of control; the T/C (dose: 6.25 mg/kg/injection, schedule: Q01DX009 (ip), vehicle: saline) is 142 % of control; the T/C (dose: 12.0 mg/kg/injection, schedule: Q01DX001 (iv), vehicle: saline) was 138 % of control; the T/C (dose: 27.0 mg/kg/injection, schedule: Q04DX003 (ip), vehicle: saline) is 127 % of control. Moreover, the survivor count was 6 of 6 (dose: 12.5 mg/kg/injection, schedule: Q01DX009 (ip), vehicle: saline); 6 of 6 (dose: 24.0 mg/kg/injection, schedule: Q01DX005 (ip), vehicle: saline); 4 of 5 (dose: 24.0 mg/kg/injection, schedule: Q01DX005 (ip), vehicle: water); 6 of 6 (dose: 24.0 mg/kg/injection, schedule: Q01DX005 (iv), vehicle: saline); 8 of 8 (dose: 24.0 mg/kg/injection, schedule: Q04DX003 (ip), vehicle: saline); 6 of 6 (dose: 48.0 mg/kg/injection, schedule: Q01DX001 (ip), vehicle: saline). Where the note is “dose: 48.0 mg/kg/injection, schedule: Q01DX001 (iv), vehicle: saline”, the survivor count is 6 of 6.
With `C1CCC2C(C1)CC[N-]C2CCC1[N-]CCC2CCCCC21.C1CCC2C(C1)CC[N-]C2CCC1[N-]CCC2CCCCC21.[Ni+2].[O-][Cl+3]([O-])([O-])O` (stereo unspecified), the T/C (dose: 200.0 mg/kg/injection, schedule: Q01DX001 (ip), vehicle: saline) was 128 % of control [4 of 6 alive]. In addition, the survivor count (dose: 400.0 mg/kg/injection, schedule: Q01DX001 (ip), vehicle: saline) is listed as 0 of 6.
Turning to `C1=CCC(CC[Si]23OCCN(CCO2)CCO3)CC1` (stereo unspecified), the survivor count is, setting by setting: under setting [4], 5 of 6; under setting [1], 4 of 6.
For the molecule `CCOC(=O)CCC(C)(C#N)C(C#N)C(=O)OCC` (stereo unspecified), the survivor count under setting [3] is recorded as 6 of 6.
With `CCCCOC(=O)NC(=O)c1cc2cc(Cl)cc(Cl)c2oc1=O`, the survivor count (dose: 200.0 mg/kg/injection, schedule: Q01DX005 (ip), vehicle: saline with Tween-80) is listed as 1 of 6.
For `[Cl][Cu][Cl]`, the survivor count (dose: 12.5 mg/kg/injection, schedule: Q04DX003 (ip), vehicle: saline) is recorded as 3 of 6.
On to `Nc1cccnc1N`, for which the survivor count was 1 of 6 and 3 of 6 (dose: 25.0 mg/kg/injection, schedule: Q01DX009 (ip), vehicle: saline); 0 of 6 (dose: 40.0 mg/kg/injection, schedule: Q01DX009 (ip), vehicle: saline); 0 of 6 (dose: 50.0 mg/kg/injection, schedule: Q01DX009 (ip), vehicle: saline); 0 of 6 (dose: 100.0 mg/kg/injection, schedule: Q01DX009 (ip), vehicle: saline); 0 of 6 (dose: 200.0 mg/kg/injection, schedule: Q01DX009 (ip), vehicle: saline).
For `CC12CCCCC1=CC(=O)CC2` (stereo unspecified), the T/C (dose: 100.0 mg/kg/injection, schedule: Q01DX009 (ip), vehicle: other) is 134 % of control. Moreover, the survivor count (dose: 200.0 mg/kg/injection, schedule: Q01DX009 (ip), vehicle: saline + Tween-80 + alcohol) is 2 of 6.
In the case of `Nc1cccc2c1C(=O)c1ccc(C(=O)O)cc1C2=O`, the survivor count under setting [1] is 6 of 6.
With `CC(C)C(=O)[O][Bi]([c]1ccccc1)[c]1ccccc1`, the T/C reads like this: (dose: 12.5 mg/kg/injection, schedule: Q01DX005 (ip), vehicle: Klucel (hydroxypropylcellulose) (HPC)) 140 % of control; under setting [5], 119 and 156 % of control. In addition, the survivor count (dose: 25.0 mg/kg/injection, schedule: Q01DX005 (ip), vehicle: Klucel (hydroxypropylcellulose) (HPC)) is given as 0 of 6; the survivor count under setting [5] is 0 of 6 and 3 of 6; the survivor count under setting [4] is listed as 0 of 6; the survivor count under setting [1] is 0 of 6.
For the molecule `CN1CCC2CC1c1ccn(C)c1C2=O` (stereo unspecified), the survivor count reads like this: (dose: 60.0 mg/kg/injection, schedule: Q01DX005 (ip), vehicle: saline) 0 of 6; (dose: 120.0 mg/kg/injection, schedule: Q01DX005 (ip), vehicle: saline) 0 of 6; (dose: 240.0 mg/kg/injection, schedule: Q01DX005 (ip), vehicle: saline) 0 of 6.
Consider `CCCc1c2c(c(CCC)c3c1-c1cccc4cccc-3c14)-c1ccccc1C2=O`, for which the survivor count (dose: 400.0 mg/kg/injection, schedule: Q04DX003 (ip), vehicle: saline with Tween-80) is given as 1 of 6.
Regarding `CCCOc1cc2c(cc1C(C)c1ccc(OC)cc1)OCO2` (stereo unspecified), the T/C was 92 [4 of 5 alive], 97, 100, 104 % of control (dose: 50.0 mg/kg/injection, schedule: Q01DX005 (ip), vehicle: distilled water + alcohol); 100, 101, 104, 106 % of control (dose: 100.0 mg/kg/injection, schedule: Q01DX005 (ip), vehicle: distilled water + alcohol); 104, 109, 111, 121 % of control (dose: 200.0 mg/kg/injection, schedule: Q01DX005 (ip), vehicle: distilled water + alcohol); 130 % of control (dose: 400.0 mg/kg/injection, schedule: Q01DX005 (ip), vehicle: distilled water + alcohol).
